The subject of the series is HLA-DR and HLA-DP molecules. The experiment in a line: MHC class II binding assays, panel of twelve HLA class II molecules (number of alleles bound). As to conditions: binding affinity less or equal to 1000 nanomolar.

We go through one compound from patent US20080299140A1, “Immunogenic Composition and Peptide Sequences for Prevention and Treatment of an Hsv Condition” (priority 2002, published 2008).

On to `CSCC[C@H](NC(=O)[C@H](CCCCN)NC(=O)[C@H](CC(C)C)NC(=O)[C@H](CO)NC(=O)[C@H](C)NC(=O)[C@H](CC(=O)O)NC(=O)[C@@H](NC(=O)[C@H](CC(C)C)NC(=O)[C@H](C)NC(=O)[C@H](Cc1ccc(O)cc1)NC(=O)[C@@H](N)CCCCN)C(C)C)C(=O)N[C@@H](C)C(=O)N[C@@H](CC(=O)O)C(=O)N1CCC[C@H]1C(=O)N[C@@H](CC(N)=O)C(=O)N[C@@H](CCCNC(=N)N)C(=O)N[C@@H](Cc1ccccc1)C(=O)N[C@@H](CCCNC(=N)N)C(=O)NCC(=O)N[C@@H](CCCCN)C(=O)N[C@@H](CC(=O)O)C(=O)N[C@@H](CC(C)C)C(=O)N1CCC[C@H]1C(=O)O` [HSV 29], for which the “number of alleles of human HLA class II molecules bound” value is on record as not below 3.
